Data reported in patent US20240092863A1, “ANTIMICROBIAL TARGET” (priority 2020, published 2024).
Not every detail of the peptide structures is certain; ends, links or a residue may be inferred. Where a SMILES comes first, the peptide text is derived from it. Bridges are numbered along the chain shown (N, C = ends). Where no end group is shown, it is not given here. [ ]: non-standard residue; d: D form. S5 = C=CCCC[C@](C)(N)C(=O)O

Experiments:
S. aureus SH1000 [1] = assay: 3D model of wounded human skin infected with S. aureus; assay type: cell-based, Staphylococcus aureus; settings: 200 nM peptide added 1 hour before infection, 24 hours infection; FIG. 6B
S. aureus = S. aureus adhesion to HaCaT human keratinocyte cells (bacterial adhesion assay, CFU); assay type: cell-based, Staphylococcus aureus; settings: compared with peptide 800; FIG. 1C
Procedure: HaCaT human keratinocyte cells were cultured in DMEM supplemented with 10% (v/v) foetal bovine serum. Cells were subcultured by trypsinisation. For bacterial adhesion assays, HaCaT cells (10,000 cells/well) were grown overnight in 96-well plates.
For infection assays, bacterial were cultured from a single agar plate colony overnight in 5 ml of the appropriate growth medium. Then cultures were harvested by centrifugation, washed with 10 ml PBS, re-suspended in growth medium and incubated to achieve an OD600 equivalent to 5×10^8 CFU/ml. Cultures were again harvested by centrifugation, washed twice with PBS and re-suspended in DMEM at an appropriate density.

S. aureus SH1000 [2] = assay: Phagocytosis assay: S. aureus adherence to and internalisation into human monocyte-derived macrophages; assay type: cell-based, Staphylococcus aureus; settings: 200 nM peptide
[3] = tested on: P. aeruginosa clinical isolate LVP3; assay: Human ex vivo corneal infection model; design: species or system Pseudomonas aeruginosa; settings: 400 nM peptide, human corneas, 24 hours infection; FIG. 7B

| Compound | inhibition of S. aureus SH1000 adhesion to wounded human skin (CFU per mg of skin) (S. aureus SH1000 [1]) | potency on S. aureus adherence to HaCaT cells (dose-response curves) (S. aureus) | S. aureus SH1000 adherence to human monocyte-derived macrophages (S. aureus SH1000 [2]; 1 hour, FIG. 5A) | numbers of internalised bacteria in macrophages at 4 hours (S. aureus SH1000 [2]; 4 hours after gentamicin, FIG. 5B) | numbers of internalised bacteria in macrophages at 18 hours (S. aureus SH1000 [2]; 18 hours, FIG. 5C) | inhibition of LVP3 adhesion to the cornea (recoverable CU) [3] |
| --- | --- | --- | --- | --- | --- | --- |
| CC[C@H](C)[C@H](NC(=O)[C@H](C)NC(=O)[C@H](CCCCN)NC(=O)[C@H](CC(C)C)NC(=O)[C@]1(C)CCCC=CCCC[C@](C)(NC(=O)[C@H](CCC(=O)O)NC(=O)[C@@H](N)CC(=O)O)C(=O)N[C@@H](CCC(N)=O)C(=O)N[C@@H](CCCNC(=N)N)C(=O)N[C@@H](CCC(=O)O)C(=O)N1)C(=O)N[C@@H](Cc1c[nH]cn1)C(=O)N[C@@H](Cc1ccc(O)cc1)C(=O)N[C@@H](C)C(=O)N[C@@H](CC(C)C)C(=O)N[C@@H](CC(N)=O)C(=O)O [800i] (H-DE[S5]QRE[S5]LKAIHYALN-OH; staple 3-7; N-terminus and C-terminus assumed) | effective inhibitors |  |  |  |  |  |
| DEPQRETLKAIHYALN [800-Cap] | effective inhibitors | progressively increased the potency | not to be affected | no difference | no difference |  |
| CC[C@H](C)[C@@H]1NC(=O)[C@@](C)(NC(=O)[C@H](CCCCN)NC(=O)[C@H](CC(C)C)NC(=O)[C@@H](NC(=O)[C@H](CCC(=O)O)NC(=O)[C@H](CCCNC(=N)N)NC(=O)[C@H](CCC(N)=O)NC(=O)[C@@H]2CCCN2C(=O)[C@H](CCC(=O)O)NC(=O)[C@@H](N)CC(=O)O)[C@@H](C)O)CCCC=CCCC[C@@](C)(C(=O)N[C@@H](CC(C)C)C(=O)N[C@@H](CC(N)=O)C(=O)O)NC(=O)[C@H](Cc2ccc(O)cc2)NC(=O)[C@H](Cc2c[nH]cn2)NC1=O [800ii] (H-DEPQRETLK[S5]IHY[S5]LN-OH; staple 10-14; N-terminus and C-terminus assumed) |  | progressively increased the potency |  |  |  | significantly inhibit |
